Some of the results follow.
B1: il2ra_site2_2erj_normal_mot_HHH_b1_04373_af2_000000118_0001_18_33_H_._HHH_b2_03810_0001_0000100007_0000001_0 (protein)
chain: SSSSDDEELVRELLEEAEEAYEEGDLELVYELAVKALHVASKSNDPELQRLVAKFVEELASSSSS
B2: il2ra_site2_2erj_sap_28_mot_HHH_b1_06697_000000025_0001_41_54_H_._HHH_b1_07674_0001_0001200015_0000001_1_0001 (protein)
chain: SSSSSDVKEAYEEIAELLARAAHIKDPEEVRKLLEEAERLAEENNDPFARKYVEFARRDFSSSSS
B3: il2ra_site1_2b5i_normal_mot_HHH_b2_04910_000000118_0001_1_19_H_._HHH_b1_07445_0001_0000300015_0000001_0_af2pred_0001_af2pred_1 (protein)
chain: SSSSDEQRELLELLEQANRLDKNGDPEEAERLLEEALRLAEEAGSRALAKFLRVALRLLRSSSSS
B4: il2ra_site1_3nfp_normal_mot_HHH_b1_08274_000000052_0001_43_57_H_._HHH_b2_06250_0001_0000200010_0000001_0_af2pred_0001_af2pred_1 (protein)
chain: SSSSSSDAEEEVRELLEEARHIEDPREAERVFEEALEIARKYNDEEALKLIHEFIKEISSSSSSS
B5: il2ra_site1_2b5i_normal_mot_HHH_b2_04910_000000118_0001_1_19_H_._HHH_b1_04969_0001_0000600021_0000001_0_af2pred_dldesign_0_af2pred (protein)
chain: SSSSSNKGAEALKLFKETDEKFKTVSDEEAKKLLEETLEELKKLKKNVLVRMVEAALAELSSSSS
B6: il2ra_site2_2erj_normal_mot_6bd1339e93f6fdda22195c76da45ec5d_0001_000000136_0001_37_51_H_._HHH_b1_03999_0001_0000400017_0000001_1_af2pred_0001_1_af2pred_swapped (protein)
chain: SSSSDLEEEVRRLVEEAEELLERGDPERAAAVLLEAAHLAARNRNDELLELVARLFTRVARSSSS
B7: il2ra_site1_2b5i_normal_mot_HHH_b1_01949_af2_000000041_0001_1_19_H_._HHH_b1_06937_af2_0001_0000300018_0000001_0_af2pred_0001_af2pred_1 (protein)
chain: SSSSDEEYEEVDELYRRASELFRRGNKEEARELLEQAIRIAEERGDERVVKDLRHFLEAISSSSS
B8: il2ra_site2_3nfp_normal_mot_0136b98644bc9a8eb58b95019b738ebb_0001_1_000000071_0001_1_13_H_._HHH_b2_05054_0001_0000400019_0000001_0 (protein)
chain: SSSSSAEEDAEKALEILRDRGDEESLKELEELLKKVKEEGDPELRRELDRLLTKIYEELLSSSSS
B9: il2ra_site1_2b5i_sap_18_mot_e546d17bf4683a1997b2b4e1ffd0191e_0001_1_af2_000000072_0001_20_33_H_._HHH_b2_01886_0001_0000500046_0000001_0_0001 (protein)
chain: SSSSDEIDQEIDRLFHEASEAWRKGNREEAEKLLEEAIELARRGNDENILKDLEQMLERLGSSSS
B10: il2ra_site1_2b5i_normal_mot_HHH_b1_02217_af2_000000060_0001_42_56_H_._HHH_b1_08682_0001_0000300036_0000001_0_af2pred_dldesign_0_af2pred (protein)
chain: SSSSSSIDEIEKGFKEMERLRRAGKLEEAKELLEKNIKLAEEAGDKKTAAELKAYLERLESSSSS
B11: il2ra_site1_1z92_sap_26_mot_HHH_b2_02379_000000163_0001_38_52_H_._HHH_b1_02798_0001_0000200014_0000001_0_0001_af2pred_0001_af2pred_1 (protein)
chain: SSSSDLERQLRIVVRLAVEIAGLSEEDQKILEEVVEELVERGVSFKEAFQIIDRVAQELAESSSS
B12: il2ra_site1_3nfp_sap_15_mot_HHH_b2_04910_af2_000000236_0001_1_18_H_._HHH_b1_05877_0001_0000700066_0000001_0_0001_af2pred_0001_af2pred_1_swapped (protein)
chain: SSSSDEEVTRLIERALELAFEGNEEEVHKVLEEAERLARELNDPKLEELVERLQEQLEKLESSSS
B13: il2ra_site2_3nfp_sap_19_mot_HHH_b2_02633_000000119_0001_1_18_H_._HHH_b2_08153_0001_0000200006_0000001_0_0001 (protein)
chain: SSSSDVEEEVERLLEEIRRLIEEGDEEKAKRLLREVAHLAVEANNWELFARVAELATELFSSSSS
B14: il2ra_site2_2erj_normal_mot_HHH_b2_06646_af2_000000081_0001_19_36_H_._HHH_b2_06250_0001_0000200012_0000001_1 (protein)
chain: SSSSSSDAEELVRELLEEAREIEDLRELYRVLVEALRIASEFQDEEAQELILEFLEEQSSSSSSS
B15: il2ra_site2_2erj_sap_23_mot_HHH_b2_03173_af2_000000175_0001_41_57_H_._HHH_b2_04652_0001_0000800048_0000001_0_0001_af2pred_0001_af2pred (protein)
chain: SSSSSSDEEEEEVRELLEEAKRIKNLREAYEVLRRAAELALELNNPELIQLVDEVARESSSSSSS
B16: il2ra_site2_2erj_sap_19_mot_HHH_b1_07186_000000032_0001_43_57_H_._HHH_b1_03780_af2_0001_0000100003_0000001_0_0001 (protein)
chain: SSSSDETSEIADRAFELAQRLFKNGNPEEAEEVLEEAIRLLEELGDPDLAETLRALVRFTKSSSS
B17: il2ra_site1_1z92_normal_mot_HHH_b2_07744_000000167_0001_23_40_H_._HHH_b1_05017_af2_0001_0000200009_0000001_0 (protein)
chain: SSSSDEELAVELLEKAARLAAEAGDPEKAQKFLEFAIEHAEDLGDEELVEELRRLVEELGSSSSS
B18: il2ra_site1_3nfp_sap_18_mot_HHH_b2_05712_000000064_0001_1_19_H_._HHH_b2_05948_0001_0000300006_0000001_0_0001_af2pred_dldesign_0_af2pred (protein)
chain: SSSSSDPRAALERASELHTAGKYDEARALLEALLEEVTAAKRAALARFVERCLRALEKASSSSSS
B19: il2ra_site1_2b5i_normal_mot_f5ff40796168375b462bec8614a1db4a_0001_1_000000138_0001_53_65_H_._56b0b67d579d3eef2422ecd748522aa9_0001_0001_0000300038_0000001_0_af2 … (protein)
chain: SLEEIAEELRKKNPEAYKLLKMAVKLLKRLGVPEEEIEKLLLELKEKEGSLEKATKALLEYALSQ

The binders below were run against il2ra, P01589 (assay: yeast display titration).

Apparent Kd, inactive:
B1 no binding seen
B2 no binding seen
B3 no binding seen
B4 no binding seen
B5 no binding seen
B6 no binding seen
B7 no binding seen
B8 no binding seen
B9 no binding seen
B10 no binding seen
B11 no binding seen
B12 no binding seen
B13 no binding seen
B14 no binding seen
B15 no binding seen
B16 no binding seen
B17 no binding seen
B18 no binding seen
B19 no binding seen

Pulled one by one from the list above (2):
Apparent Kd, inactive:
B5 no binding seen
B18 no binding seen
